Data as given in patent US20090227538A1, “N-(Hetero)Aryl Indole Derivatives as Pesticides” (priority 2005, published 2009).
Some of these results come from one statement about several compounds together.

How the values were obtained:
[1] = system: Rhipicephalus sanquineus (Dog Tick); experiment: Activity in vitro against Rhipicephalus sanquineus (dog tick), adult ticks in 96-well plate; details: at 640 ppm; 10 minutes contact, 7 days at 28° C. and 80% relative humidity
[2] = system: Rhipicephalus sanguineus (Dog Tick); experiment: Activity in vivo against Rhipicephalus sanguineus (dog tick) on rabbits; details: at 240 mg/m^2, spray on rabbit ears, first infestation
[3] = system: Haemonchus contortus & Trichostrongylus colubriformis; experiment: Activity in vitro against Haemonchus contortus & Trichostrongylus colubriformis (gastrointestinal nematodes), egg hatch and larval development; details: at 100 ppm; 6 days at 25° C. and 60% RH
[4] = system: Ctenocephalides felis (Cat Flea); experiment: Activity in vitro against Ctenocephalides felis (cat flea), artificial blood feeding system; details: at 100 ppm; fleas fed on treated blood for 24 hours

| SMILES | efficacy (acaricidal activity, adult ticks dead) [1] | efficacy (comparison with placebo group, Abbot's formula) [2] | efficacy (reduced egg hatch, reduced development of L3, or paralysis & death of larvae) [3] | efficacy (insecticidal activity, dead fleas) [4] |
| --- | --- | --- | --- | --- |
| C[Si](C)(C)OC(C#N)(c1cn(-c2c(Cl)cc(C(F)(F)F)cc2Cl)c2ccccc12)C(F)(F)F (centres unmarked) [Compound 1.200] | more than 80% |  |  |  |
| OC(c1cn(-c2c(Cl)cc(C(F)(F)F)cc2Cl)c2ccccc12)(C1CC1)C(F)(F)F (centres unmarked) [Compound 1.234] |  | more than 80% | more than 80% |  |
| CC(O)(c1cn(-c2c(F)cc(C(F)(F)F)cc2F)c2ccccc12)C(F)(F)F (centres unmarked) [Compound 2.20] | more than 80% | more than 80% | more than 80% | more than 80% |
| CC(O)(c1cn(-c2c(Cl)cc(S(F)(F)(F)(F)F)cc2Cl)c2ccccc12)C(F)(F)F (centres unmarked) [Compound 2.38] | more than 80% | more than 80% |  |  |
| CC(O)(c1cn(-c2c(Cl)cc(C(F)(F)F)cc2Cl)c2cc(Cl)c(Cl)cc12)C(F)(F)F (centres unmarked) [Compound 1.214] | more than 80% |  |  |  |
| CC(O)(c1cn(-c2ccc(C(F)(F)F)cc2Cl)c2ccccc12)C(F)(F)F (centres unmarked) [Compound 2.4] | more than 80% |  | more than 80% | more than 80% |
| CCOC(C)c1cn(-c2c(Cl)cc(C(F)(F)F)cc2Cl)c2ccccc12 (centres unmarked) [Compound 1.121] | more than 80% |  |  | more than 80% |
| COC(=O)c1c(C(C)(O)C(F)(F)F)c2ccccc2n1-c1c(Cl)cc(C(F)(F)F)cc1Cl (centres unmarked) [Compound 3.73] | more than 80% | more than 80% |  | more than 80% |
| CC(O)(c1cn(-c2c(Cl)cc(C(F)(F)F)cc2Cl)c2cc(F)c(F)cc12)C(F)(F)F (centres unmarked) [Compound 1.111] |  | more than 80% | more than 80% |  |
| CC(O)(c1cn(-c2ncc(C(F)(F)F)cc2Cl)c2cc(F)ccc12)C(F)(F)F (centres unmarked) [Compound 1.138] | more than 80% |  | more than 80% | more than 80% |
| CC(O)(c1cn(-c2c(Cl)c(F)c(C(F)(F)F)c(F)c2Cl)c2ccccc12)C(F)(F)F (centres unmarked) [Compound 2.42] | more than 80% |  |  |  |
| CC(O)(c1cn(-c2c(Cl)cc(C(F)(F)F)cc2Cl)c2cc(Cl)c(F)cc12)C(F)(F)F (centres unmarked) [Compound 1.212] | more than 80% |  |  |  |
| CC=CC(O)(c1cn(-c2c(Cl)cc(C(F)(F)F)cc2Cl)c2ccccc12)C(F)(F)F (mixture of isomers) [Compound 1.251] | more than 80% |  |  |  |
| CC(O)(c1cn(-c2ccc(Cl)cc2Cl)c2ccccc12)C(F)(F)F (centres unmarked) [Compound 2.6] |  |  | more than 80% | more than 80% |
| CC(O)(c1cn(-c2c(Cl)cc(C(F)(F)F)cc2C#N)c2ccccc12)C(F)(F)F (centres unmarked) [Compound 1.250] | more than 80% |  | more than 80% |  |
| CC(O)(c1c(C=O)n(-c2c(Cl)cc(C(F)(F)F)cc2Cl)c2ccccc12)C(F)(F)F (centres unmarked) [Compound 3.59] | more than 80% |  | more than 80% | more than 80% |
| Cc1c(C(C)(O)C(F)(F)F)c2ccccc2n1-c1c(Cl)cc(C(F)(F)F)cc1Cl (centres unmarked) [Compound 3.1] | more than 80% | more than 80% |  | more than 80% |
| COCCNCC(O)(c1cn(-c2c(Cl)cc(C(F)(F)F)cc2Cl)c2ccccc12)C(F)(F)F (centres unmarked) [Compound 1.185] | more than 80% |  |  |  |
| CC(O)(c1cn(-c2ncc(C(F)(F)F)cc2Cl)c2cccc(F)c12)C(F)(F)F (centres unmarked) [Compound 1.153] | more than 80% |  | more than 80% | more than 80% |
| CC(O)(c1c(-c2ccc(F)c(Cl)c2)n(-c2c(Cl)cc(C(F)(F)F)cc2Cl)c2ccccc12)C(F)(F)F (centres unmarked) [Compound 3.10] | more than 80% |  |  |  |
| CC(O)(c1cn(-c2ccc(C#N)cc2Cl)c2ccccc12)C(F)(F)F (centres unmarked) [Compound 2.7] |  |  | more than 80% | more than 80% |
| CC(O)(c1cn(-c2ccc([N+](=O)[O-])cc2Cl)c2ccccc12)C(F)(F)F (centres unmarked) [Compound 2.12] |  |  | more than 80% | more than 80% |
| CC(O)(c1cn(-c2ccc(C(F)(F)F)cc2[N+](=O)[O-])c2ccccc12)C(F)(F)F (centres unmarked) [Compound 2.34] | more than 80% |  | more than 80% | more than 80% |
| CC(O)(c1cn(-c2ccc(C(F)(F)F)cc2F)c2ccccc12)C(F)(F)F (centres unmarked) [Compound 2.19] | more than 80% |  | more than 80% | more than 80% |
| CC(O)(c1cn(-c2c(Cl)cc([N+](=O)[O-])cc2Cl)c2ccccc12)C(F)(F)F (centres unmarked) [Compound 2.44] | more than 80% | more than 80% | more than 80% |  |
| CC(O)(c1cn(-c2c(Cl)cc(C(F)(F)F)cc2Cl)c2cccc(N)c12)C(F)(F)F (centres unmarked) [Compound 1.132] | more than 80% |  |  | more than 80% |
| CC(O)(c1cn(-c2ncc(C(F)(F)F)cc2Cl)c2ccc(F)cc12)C(F)(F)F (centres unmarked) [Compound 1.146] | more than 80% |  | more than 80% | more than 80% |
| CC(O)(c1cn(-c2c(Cl)cccc2Cl)c2ccccc12)C(F)(F)F (centres unmarked) [Compound 2.15] |  |  | more than 80% | more than 80% |
| C#CC(O)(c1cn(-c2ncc(C(F)(F)F)cc2Cl)c2ccccc12)C(F)F (centres unmarked) [Compound 1.225] |  | more than 80% | more than 80% |  |
| CC(O)(c1c(C(N)=O)n(-c2c(Cl)cc(C(F)(F)F)cc2Cl)c2ccccc12)C(F)(F)F (centres unmarked) [Compound 3.85] |  |  | more than 80% | more than 80% |
